# These are yes or no findings as the source states them, for the method shown. Some binding calls cover weakened binding; strength is not graded here.
# By UniProt entry, the sequences of proteins in these tests, tags left out.
# UniProt O00574: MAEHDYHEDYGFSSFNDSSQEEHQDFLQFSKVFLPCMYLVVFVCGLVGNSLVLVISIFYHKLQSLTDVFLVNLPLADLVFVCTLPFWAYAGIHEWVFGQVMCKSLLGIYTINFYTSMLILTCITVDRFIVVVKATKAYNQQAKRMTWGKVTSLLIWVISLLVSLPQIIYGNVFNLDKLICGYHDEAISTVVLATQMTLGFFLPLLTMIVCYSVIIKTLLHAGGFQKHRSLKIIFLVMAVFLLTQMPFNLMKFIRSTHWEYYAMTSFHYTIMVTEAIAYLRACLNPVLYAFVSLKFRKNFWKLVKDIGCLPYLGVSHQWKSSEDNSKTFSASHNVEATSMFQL
# B1: CXC motif chemokine ligand 16 (CXCL16) (ligand, UniProt Q9H2A7 30-205)
# chain: NEGSVTGSCYCGKRISSDSPPSVQFMNRLRKHLRAYHRCLYYTRFQLLSWSVCGGNKDPWVQELMSCLDLKECGHAYSGIVAHQKHLLPTSPPISQASEGASSDIHTPAQMLLSTLQSTQRPTLPVGSLSSDKELTRPNETTIHTAGHSLAAGPEAGENQKQPEKNAGPTARTSAT
# Tests used:
# [1] = molecular target: CXCR6 on CXCR6-expressing 293T cells (UniProt O00574); test: flow cytometry on cells; soluble ligand binding: CXCL16 (50 ng/ul) premixed with phage scFv or M13 helper phage (1 h, 4 C), then anti-His antibody (1 h, 4 C), added to fixed CXCR6-expressing 293T cells on ice for 30 min; only the binder purified
# [2] = molecular target: CXCR6 on CXCR6-expressing 293T cells (UniProt O00574); test: flow cytometry on cells; soluble ligand binding assay of CXCL16 on CXCR6-expressing cells in the presence of purified full-length IgG antibodies; only the binder purified
binder,measurement,setting,value
B1,binding,[1],binds
same,binding,[2],binds

# — publication PMC12528905
